Test results reported in article PMC8685902, “Perception of structurally distinct effectors by the integrated WRKY domain of a plant immune receptor”.
Substitutions are numbered along the chain they refer to. Names and notes keep the numbering of the source. No constants are given. Whether binding was seen depends on the method and setting. Binding seen in cells or lysates may run through a third protein. A result given as binding can be weak or reduced; the word gives no strength. Sequences can lack the tags named with a protein.

B1: full-length AvrRps4 N171A with C-terminal 4xmyc tag (protein, UniProt Q52432 1-220)
chain: MTRISTSSVNSSFSYSAPAEEAQNRVSSAPTNSSPPGTTTAVAQASEGQKKPGAVLSMHAQRLRQLCESSSHQYRQNALLAKSFDAQRLDINTQAGPSNSPHLNALNKLQQRDFKPAAGGLEIPFTPKSLLGGGKRVYQIGSSSRDVQVCPRGAGAALRQEIEDKQLMVNALTDELQDAIDEANPAEIANTSQQLRHARADLADLQRRFAVLRNEDRRIN
B2: full-length AvrRps4 Q194A with C-terminal 4xmyc tag (protein, UniProt Q52432 1-220)
chain: B1 chain with A171N, Q194A
B3: full-length AvrRps4 E175A with C-terminal 4xmyc tag (protein, UniProt Q52432 1-220)
chain: B1 chain with A171N, E175A
B4: full-length AvrRps4 D164A with C-terminal 4xmyc tag (protein, UniProt Q52432 1-220)
chain: B1 chain with D164A, A171N
B5: full-length AvrRps4 EE/AA (E175A/E187A) with C-terminal 4xmyc tag (protein, UniProt Q52432 1-220)
chain: B1 chain with A171N, E175A, E187A
B6: full-length AvrRps4 E187A with C-terminal 4xmyc tag (protein, UniProt Q52432 1-220)
chain: B1 chain with A171N, E187A

These binders were tested against RRS1-R^WRKY+83 with C-terminal 6xHis/3xFLAG tag (Arabidopsis) (assay: co-IP; transient coexpression in N. benthamiana; RRS1-R^WRKY+83 (6xHis/3xFLAG) precipitated with anti-FLAG magnetic beads, AvrRps4 variants (4xmyc) detected by blot).
B1 was tested, and the binding was “binds”. With B2 the binding was “binds weakly”. B3 was tested, and the binding was “no binding”. B4 was tested, and the binding was “no binding”. In the case of B5, the binding is reported as “no binding”. For B6, the binding was “no binding”.
